In paper PMC10573421:
No constants are given. Whether binding was seen depends on the method and setting. Binding seen in cells or lysates may run through a third protein. A yes stands for co-enrichment or nearness to the bait. Other partners may have been found. Values belong to the molecule of their own block, whether it stands above or below them.

Amino acid sequences for entries named in this document (tags omitted). Residues count along the entry.
UniProt P07355: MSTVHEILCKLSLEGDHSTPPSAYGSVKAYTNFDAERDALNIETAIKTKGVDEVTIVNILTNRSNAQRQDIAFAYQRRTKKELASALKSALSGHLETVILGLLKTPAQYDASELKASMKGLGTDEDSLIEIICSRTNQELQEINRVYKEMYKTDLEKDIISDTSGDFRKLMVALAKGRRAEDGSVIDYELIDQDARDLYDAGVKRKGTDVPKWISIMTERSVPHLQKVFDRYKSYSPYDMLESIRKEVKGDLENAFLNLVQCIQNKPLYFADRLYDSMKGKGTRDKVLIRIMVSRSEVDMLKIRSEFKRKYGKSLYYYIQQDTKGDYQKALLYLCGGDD
UniProt P08238: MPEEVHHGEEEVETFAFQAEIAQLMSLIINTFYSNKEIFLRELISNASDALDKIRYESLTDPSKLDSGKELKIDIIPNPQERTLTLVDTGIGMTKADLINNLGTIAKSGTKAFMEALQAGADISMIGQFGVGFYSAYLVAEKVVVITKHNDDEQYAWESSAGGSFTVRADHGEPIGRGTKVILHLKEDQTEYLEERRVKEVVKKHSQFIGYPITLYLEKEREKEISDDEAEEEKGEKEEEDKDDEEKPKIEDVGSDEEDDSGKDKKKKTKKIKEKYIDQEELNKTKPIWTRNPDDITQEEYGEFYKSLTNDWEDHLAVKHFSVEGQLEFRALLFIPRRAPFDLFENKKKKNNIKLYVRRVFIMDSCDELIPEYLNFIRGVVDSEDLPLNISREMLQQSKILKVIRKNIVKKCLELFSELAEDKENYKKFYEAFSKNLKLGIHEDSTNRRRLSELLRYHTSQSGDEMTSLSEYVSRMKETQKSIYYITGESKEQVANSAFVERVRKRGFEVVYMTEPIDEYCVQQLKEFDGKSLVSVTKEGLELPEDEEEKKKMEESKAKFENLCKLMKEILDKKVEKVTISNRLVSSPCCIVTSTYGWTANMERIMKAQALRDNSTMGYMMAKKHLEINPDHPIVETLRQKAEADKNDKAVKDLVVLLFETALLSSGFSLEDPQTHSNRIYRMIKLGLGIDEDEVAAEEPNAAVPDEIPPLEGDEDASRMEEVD
UniProt P0DMV8: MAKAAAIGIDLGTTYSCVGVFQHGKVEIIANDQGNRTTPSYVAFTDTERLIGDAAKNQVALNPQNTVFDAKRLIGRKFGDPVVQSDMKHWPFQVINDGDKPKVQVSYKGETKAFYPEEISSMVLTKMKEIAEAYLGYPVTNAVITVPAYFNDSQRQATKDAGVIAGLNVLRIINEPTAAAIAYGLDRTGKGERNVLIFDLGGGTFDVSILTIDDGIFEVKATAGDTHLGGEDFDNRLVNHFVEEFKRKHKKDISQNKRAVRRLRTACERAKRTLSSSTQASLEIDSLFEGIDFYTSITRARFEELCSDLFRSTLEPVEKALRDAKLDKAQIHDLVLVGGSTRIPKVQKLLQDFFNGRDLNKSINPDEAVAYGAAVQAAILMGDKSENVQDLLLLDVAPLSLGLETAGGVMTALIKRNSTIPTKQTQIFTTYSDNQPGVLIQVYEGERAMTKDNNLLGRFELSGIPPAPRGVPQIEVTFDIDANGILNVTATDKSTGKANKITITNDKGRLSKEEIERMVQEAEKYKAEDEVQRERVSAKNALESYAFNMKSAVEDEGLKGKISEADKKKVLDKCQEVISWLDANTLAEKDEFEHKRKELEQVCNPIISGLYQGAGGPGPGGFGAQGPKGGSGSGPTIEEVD
UniProt P54652: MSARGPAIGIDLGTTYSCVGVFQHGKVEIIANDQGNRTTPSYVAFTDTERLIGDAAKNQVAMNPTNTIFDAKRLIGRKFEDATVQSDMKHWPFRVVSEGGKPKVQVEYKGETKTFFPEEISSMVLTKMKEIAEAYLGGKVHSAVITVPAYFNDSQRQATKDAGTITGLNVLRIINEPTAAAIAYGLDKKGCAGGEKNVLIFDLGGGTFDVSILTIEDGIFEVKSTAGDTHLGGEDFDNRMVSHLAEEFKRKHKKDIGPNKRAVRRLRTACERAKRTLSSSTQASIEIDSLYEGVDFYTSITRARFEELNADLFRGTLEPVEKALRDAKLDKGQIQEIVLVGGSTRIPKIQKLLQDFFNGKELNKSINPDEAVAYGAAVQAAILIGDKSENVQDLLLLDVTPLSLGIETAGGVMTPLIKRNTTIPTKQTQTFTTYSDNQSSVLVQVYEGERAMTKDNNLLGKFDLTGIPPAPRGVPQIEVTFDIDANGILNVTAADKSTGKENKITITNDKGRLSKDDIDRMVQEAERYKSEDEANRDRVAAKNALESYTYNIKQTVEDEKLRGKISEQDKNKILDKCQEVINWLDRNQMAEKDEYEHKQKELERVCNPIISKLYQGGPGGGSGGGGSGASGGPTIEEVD
UniProt P11142: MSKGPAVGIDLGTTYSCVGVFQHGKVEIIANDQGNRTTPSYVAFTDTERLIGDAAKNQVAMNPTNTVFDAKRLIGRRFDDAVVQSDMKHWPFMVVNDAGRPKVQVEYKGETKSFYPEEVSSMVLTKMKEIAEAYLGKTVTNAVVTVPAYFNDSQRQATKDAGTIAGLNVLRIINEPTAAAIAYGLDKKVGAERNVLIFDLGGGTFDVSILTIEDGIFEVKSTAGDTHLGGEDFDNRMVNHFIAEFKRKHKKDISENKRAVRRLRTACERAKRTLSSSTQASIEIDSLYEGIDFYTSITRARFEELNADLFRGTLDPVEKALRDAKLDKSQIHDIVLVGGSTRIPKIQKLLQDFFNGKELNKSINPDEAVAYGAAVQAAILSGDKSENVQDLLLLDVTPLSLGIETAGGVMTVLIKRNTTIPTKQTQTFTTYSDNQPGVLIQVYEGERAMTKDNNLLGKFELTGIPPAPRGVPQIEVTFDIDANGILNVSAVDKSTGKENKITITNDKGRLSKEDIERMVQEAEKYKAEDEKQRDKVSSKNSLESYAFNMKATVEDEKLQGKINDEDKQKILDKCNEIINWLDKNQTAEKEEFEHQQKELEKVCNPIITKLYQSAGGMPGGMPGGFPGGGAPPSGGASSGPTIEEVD
UniProt P11021, residues 19-654: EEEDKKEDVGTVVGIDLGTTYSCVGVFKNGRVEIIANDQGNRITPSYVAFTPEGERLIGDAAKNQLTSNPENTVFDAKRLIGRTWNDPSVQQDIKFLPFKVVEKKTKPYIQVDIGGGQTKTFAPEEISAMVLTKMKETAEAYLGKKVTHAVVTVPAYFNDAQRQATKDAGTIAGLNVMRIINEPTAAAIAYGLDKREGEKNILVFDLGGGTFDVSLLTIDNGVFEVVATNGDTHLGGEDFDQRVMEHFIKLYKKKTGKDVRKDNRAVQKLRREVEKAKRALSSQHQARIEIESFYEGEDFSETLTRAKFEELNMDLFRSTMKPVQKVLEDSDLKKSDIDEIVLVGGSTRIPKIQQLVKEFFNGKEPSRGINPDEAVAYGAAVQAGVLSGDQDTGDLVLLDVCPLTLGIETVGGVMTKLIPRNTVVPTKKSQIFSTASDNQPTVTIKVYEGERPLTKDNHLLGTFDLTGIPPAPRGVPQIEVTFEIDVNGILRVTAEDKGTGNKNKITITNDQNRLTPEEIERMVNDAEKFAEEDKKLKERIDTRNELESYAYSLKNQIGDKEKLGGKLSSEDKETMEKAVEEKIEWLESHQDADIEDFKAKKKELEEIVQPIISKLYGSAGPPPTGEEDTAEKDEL

Biological target: JICD1-HA-FLAG (JAG1 intracellular domain) (UniProt P78504)
Assay: affinity purification with mass spectrometry; IP against HA from LN18 cells expressing JICD1-HA-FLAG; bound proteins identified by mass spectrometry

- binding: binds
Molecule: Annexin A2 (ANXA2), endogenous (from UniProt P07355 1-339)

- binding: binds
Molecule: HSP90AA1 (from UniProt P07900 1-732)

- binding: binds
Molecule: HSP90AB1 (from UniProt P08238 1-724)

- binding: binds
Molecule: HSPA1A (from UniProt P0DMV8 1-641)

- binding: binds
Molecule: HSPA2 (from UniProt P54652 1-639)

- binding: binds
Molecule: HSPA8 (HSC70) (from UniProt P11142 1-646)

- binding: binds
Molecule: heat shock protein family A member 5 (HSPA5) (from UniProt P11021 19-654)

- binding: binds
B1: PDIA6 (protein, UniProt Q15084 20-440)
chain: LYSSSDDVIELTPSNFNREVIQSDSLWLVEFYAPWCGHCQRLTPEWKKAATALKDVVKVGAVDADKHHSLGGQYGVQGFPTIKIFGSNKNRPEDYQGGRTGEAIVDAALSALRQLVKDRLGGRSGGYSSGKQGRSDSSSKKDVIELTDDSFDKNVLDSEDVWMVEFYAPWCGHCKNLEPEWAAAASEVKEQTKGKVKLAAVDATVNQVLASRYGIRGFPTIKIFQKGESPVDYDGGRTRSDIVSRALDLFSDNAPPPELLEIINEDIAKRTCEEHQLCVVAVLPHILDTGAAGRNSYLEVLLKLADKYKKKMWGWLWTEAGAQSELETALGIGGFGYPAMAAINARKMKFALLKGSFSEQGINEFLRELSFGRGSTAPVGGGAFPTIVEREPWDGRDGELPVEDDIDLSDVELDDLGKDEL

- binding: binds
B2: protein disulfide-isomerase family A member 4 (PDIA4) (protein, UniProt P13667 21-645)
chain: VAGAEGPDEDSSNRENAIEDEEEEEEEDDDEEEDDLEVKEENGVLVLNDANFDNFVADKDTVLLEFYAPWCGHCKQFAPEYEKIANILKDKDPPIPVAKIDATSASVLASRFDVSGYPTIKILKKGQAVDYEGSRTQEEIVAKVREVSQPDWTPPPEVTLVLTKENFDEVVNDADIILVEFYAPWCGHCKKLAPEYEKAAKELSKRSPPIPLAKVDATAETDLAKRFDVSGYPTLKIFRKGRPYDYNGPREKYGIVDYMIEQSGPPSKEILTLKQVQEFLKDGDDVIIIGVFKGESDPAYQQYQDAANNLREDYKFHHTFSTEIAKFLKVSQGQLVVMQPEKFQSKYEPRSHMMDVQGSTQDSAIKDFVLKYALPLVGHRKVSNDAKRYTRRPLVVVYYSVDFSFDYRAATQFWRSKVLEVAKDFPEYTFAIADEEDYAGEVKDLGLSESGEDVNAAILDESGKKFAMEPEEFDSDTLREFVTAFKKGKLKPVIKSQPVPKNNKGPVKVVVGKTFDSIVMDPKKDVLIEFYAPWCGHCKQLEPVYNSLAKKYKGQKGLVIAKMDATANDVPSDRYKVEGFPTIYFAPSGDKKNPVKFEGGDRDLEHLSKFIEEHATKLSRTKEEL
